The subject of the assay is P388 leukemia ip, CD2F1 mice, survival T/C. Put plainly: NCI In Vivo Anticancer Drug Screen. Data for tumor model P388 Leukemia (intraperitoneal) in CD2F1 (CDF1) mice. The settings on record: T/C endpoint: median survival time, higher T/C = longer survival.
Where [1] appears, read: dose: 0.15 mg/kg/injection, schedule: Q01DX009 (ip), vehicle: saline + alcohol.
[2] abbreviates: dose: 0.31 mg/kg/injection, schedule: Q01DX009 (ip), vehicle: saline + alcohol.
Where [3] appears, read: dose: 0.62 mg/kg/injection, schedule: Q01DX009 (ip), vehicle: saline + alcohol.
Setting [4] is: dose: 1.25 mg/kg/injection, schedule: Q01DX009 (ip), vehicle: saline + alcohol.
[5] abbreviates: dose: 2.5 mg/kg/injection, schedule: Q01DX009 (ip), vehicle: saline + alcohol.
[6] abbreviates: dose: 5.0 mg/kg/injection, schedule: Q01DX009 (ip), vehicle: saline + alcohol.
The mark [7] stands for this setting: dose: 10.0 mg/kg/injection, schedule: Q01DX009 (ip), vehicle: saline + alcohol.

Structures are written as SMILES. The list does not hold the whole screen: it gathers some chemical classes. Other doses and runs of a compound may be missing. T/C gives the treated animals as a percentage of the vehicle group. Where survival is the endpoint, this PubChem deposit counts one and a half times the control or more as active, and values a quarter to a half above the control carry no call in these data; other NCI protocols may use other cut-offs. Schedules are NCI's codes, read here as Q, the interval in days (D) or hours (H), X, the number of doses. Some T/C values are marked as having no survivor count here; that says nothing about deaths at the dose. Some entries hold several experiments; the results are listed from low to high.

In the case of `C[C@@H]1CCOC(=O)/C=C/C=C\C(=O)O[C@@H]2C[C@H]3O[C@@H]4[C@@H]5OC5(C)CCC4(COC(=O)[C@H]1O)[C@]2(C)[C@@]31CO1` (stereo partly drawn), the T/C is 148 % of control [survivor count not shown] (dose: 0.25 mg/kg/injection, schedule: Q01DX009 (ip), vehicle: saline + alcohol); 145 % of control [survivor count not shown] (dose: 0.5 mg/kg/injection, schedule: Q01DX009 (ip), vehicle: other); 144 % of control [survivor count not shown] (dose: 0.5 mg/kg/injection, schedule: Q01DX009 (ip), vehicle: saline + alcohol); 150 % of control [survivor count not shown] (dose: 1.0 mg/kg/injection, schedule: Q01DX009 (ip), vehicle: other); 167 % of control [survivor count not shown] (dose: 1.0 mg/kg/injection, schedule: Q01DX009 (ip), vehicle: saline + alcohol); 142 % of control [survivor count not shown] (dose: 2.0 mg/kg/injection, schedule: Q01DX009 (ip), vehicle: other). Further, the T/C was 163 % of control [survivor count not shown] (dose: 2.0 mg/kg/injection, schedule: Q01DX009 (ip), vehicle: saline + alcohol); 164 % of control [survivor count not shown] (dose: 4.0 mg/kg/injection, schedule: Q01DX009 (ip), vehicle: other); 183 % of control [survivor count not shown] (dose: 4.0 mg/kg/injection, schedule: Q01DX009 (ip), vehicle: saline + alcohol); 210 % of control [survivor count not shown] (dose: 8.0 mg/kg/injection, schedule: Q01DX009 (ip), vehicle: saline + alcohol).
In the case of `CC(O)C1/C=C/C=C/C(=O)OC2CC3OC4C5OC5(C)CCC4(COC(=O)C(O)C(C)CCO1)C2(C)C31CO1` (stereo not drawn), the T/C by setting is: under setting [1], 124 % of control [survivor count not shown]; under setting [2], 133 % of control [survivor count not shown]; under setting [3], 147 % of control [survivor count not shown]; under setting [4], 157 % of control [survivor count not shown]; under setting [5], 171 % of control [survivor count not shown]; under setting [6], 186 % of control [survivor count not shown]. Further, the T/C under setting [7] is 205 % of control [survivor count not shown].
As for `C[C@H](O)[C@H]1/C=C/C=C\C(=O)O[C@@H]2C[C@H]3O[C@@H]4[C@@H]5O[C@]5(C)CCC4(COC(=O)[C@H]4O[C@]4(C)[C@@H](O)CO1)[C@]2(C)[C@]31CO1` (stereo partly drawn), the T/C under setting [1] was 160 % of control [survivor count not shown]; the T/C under setting [2] was 160 [survivor count not shown] and 179 % of control [survivor count not shown]; the T/C (dose: 0.62 mg/kg/injection, schedule: Q01DX009 (ip), vehicle: other) is 151 % of control [survivor count not shown]; the T/C under setting [3] is 159 [survivor count not shown], 163 [survivor count not shown], 207 % of control [survivor count not shown]; the T/C (dose: 1.25 mg/kg/injection, schedule: Q01DX009 (ip), vehicle: other) was 225 % of control [survivor count not shown]; the T/C under setting [4] was 156 [survivor count not shown], 169 [survivor count not shown], 188 % of control [survivor count not shown]. The T/C (dose: 2.5 mg/kg/injection, schedule: Q01DX009 (ip), vehicle: other) was 177 % of control [survivor count not shown]; the T/C under setting [5] was 226 [survivor count not shown] and 233 % of control [survivor count not shown]; the T/C (dose: 5.0 mg/kg/injection, schedule: Q01DX009 (ip), vehicle: other) was 239 % of control [survivor count not shown]; the T/C under setting [6] was 107 [survivor count not shown] and 233 % of control [survivor count not shown]; the T/C under setting [7] is 86 % of control [survivor count not shown].
For the compound `C=C(C)C(=O)OC1C(=O)C2OC3C=C(C)C(=O)CC3(COC(C)=O)C1(C)C21CO1` (stereo not drawn), the T/C runs as follows: (dose: 0.1 mg/kg/injection, schedule: Q01DX009 (ip), vehicle: Klucel (hydroxypropylcellulose) (HPC)) 140 % of control [survivor count not shown]; (dose: 0.2 mg/kg/injection, schedule: Q01DX009 (ip), vehicle: Klucel (hydroxypropylcellulose) (HPC)) 163 % of control [survivor count not shown]; (dose: 0.4 mg/kg/injection, schedule: Q01DX009 (ip), vehicle: Klucel (hydroxypropylcellulose) (HPC)) 163 % of control [survivor count not shown]; (dose: 0.8 mg/kg/injection, schedule: Q01DX009 (ip), vehicle: Klucel (hydroxypropylcellulose) (HPC)) 173 % of control [survivor count not shown]; (dose: 1.6 mg/kg/injection, schedule: Q01DX009 (ip), vehicle: Klucel (hydroxypropylcellulose) (HPC)) 210 % of control [survivor count not shown].
`CC1=CC2OC3CC4OC(=O)/C=C/C=C/C(C(C)O)OCC/C(C)=C/C(=O)OCC2(CC1)C4(C)C31CO1` (stereo not drawn): the T/C was 127 % of control [survivor count not shown] (dose: 1.56 mg/kg/injection, schedule: Q01DX009 (ip), vehicle: saline with Tween-80); 131 % of control [survivor count not shown] (dose: 3.12 mg/kg/injection, schedule: Q01DX009 (ip), vehicle: saline with Tween-80); 123 [survivor count not shown] and 165 % of control [survivor count not shown] (dose: 6.25 mg/kg/injection, schedule: Q01DX009 (ip), vehicle: saline with Tween-80).
Consider `CC1=CC2O[C@@H]3C[C@H]4OC(=O)CCCCC(C(C)O)OCC(O)C5(C)OC5C(=O)OCC2(C[C@H]1O)[C@]4(C)[C@@]31CO1` (stereo partly drawn), for which the T/C is 123 % of control [survivor count not shown] (dose: 0.62 mg/kg/injection, schedule: Q01DX005 (ip), vehicle: saline with Tween-80); 133 % of control [survivor count not shown] (dose: 1.25 mg/kg/injection, schedule: Q01DX005 (ip), vehicle: Klucel (hydroxypropylcellulose) (HPC)); 132 % of control [survivor count not shown] (dose: 1.25 mg/kg/injection, schedule: Q01DX005 (ip), vehicle: saline with Tween-80); 129 % of control [survivor count not shown] (dose: 2.5 mg/kg/injection, schedule: Q01DX005 (ip), vehicle: Klucel (hydroxypropylcellulose) (HPC)); 150 % of control [survivor count not shown] (dose: 2.5 mg/kg/injection, schedule: Q01DX005 (ip), vehicle: saline with Tween-80); 153 % of control [survivor count not shown] (dose: 5.0 mg/kg/injection, schedule: Q01DX005 (ip), vehicle: Klucel (hydroxypropylcellulose) (HPC)). For the same compound, the T/C was 155 % of control [survivor count not shown] (dose: 5.0 mg/kg/injection, schedule: Q01DX005 (ip), vehicle: saline with Tween-80); 135 % of control [survivor count not shown] (dose: 10.0 mg/kg/injection, schedule: Q01DX005 (ip), vehicle: Klucel (hydroxypropylcellulose) (HPC)); 175 % of control [survivor count not shown] (dose: 10.0 mg/kg/injection, schedule: Q01DX005 (ip), vehicle: saline with Tween-80).
In the case of `CC1=C[C@H]2O[C@@H]3[C@H](O)[C@@H](OC(=O)CCl)[C@](C)([C@@]2(CO)CC1)[C@]31CO1`, the T/C by setting is: (dose: 1.0 mg/kg/injection, schedule: Q01DX009 (ip), vehicle: saline with Tween-80) 134 % of control [survivor count not shown]; (dose: 2.0 mg/kg/injection, schedule: Q01DX009 (ip), vehicle: saline with Tween-80) 140 % of control [survivor count not shown]; (dose: 4.0 mg/kg/injection, schedule: Q01DX009 (ip), vehicle: saline with Tween-80) 152 % of control [survivor count not shown].

Source of the values: PubChem BioAssay AID330 (DTP/NCI, 2004).
